Data as given in PubChem BioAssay AID743456 (Peter MacCallum Cancer Centre, 2014)

Screen: 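Mimic library tested for viability and apoptosis changes under vorinostat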 (primary screen)
Cell system: human HCT116-VR colon cancer cells, a vorinostat-resistant HCT116 line
Reagent: miRNA mimic
Time to read-out: about 3 days from transfection to readout; drug present for the last 24 h
Conditions: vorinostat at 2.5 µM final for 24 h
Measurement: 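Cell viability from CellTiter-Fluor signal and caspase activity from luminescence after 24 h vorinostat at 2.5 µM, given as robust z-scores and as ratios to mock-transfected wells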
Reading the numbers: viability robust z-score: higher = more viable cells; caspase robust z-score: higher = more caspase activity, more apoptosis
Rule for the call: 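a mimic counts as active if it lands in a lowered-viability class or a caspase-activation class; wells with too few cells without drug are left out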
In all, the deposit lists 878 reagents; shown is an unselected part. 27 of all reagents (3.1%) count as active. 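27 mimics are marked active, unlike an earlier stated count of 24; the viability threshold is described inconsistently.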 Entries without a mark were called inactive. Further read-outs or replicates are left out here. Reagent sequences are not shown. Not stated in the record: the amount of reagent.

no.	miRNA	viability robust z-score	caspase robust z-score	viability hit class	caspase hit class
1	hsa-miR-603	-0.43	-0.24	no change	no change
2	hsa-miR-26b*	-0.33	1.18	no change	no change
3	hsa-miR-126*	0.96	-0.57	no change	no change
4	hsa-miR-511	0.3	0.95	no change	no change
5	hsa-miR-340*	0.07	-0.2	no change	no change
6	hsa-miR-517*	1.69	-0.22	no change	no change
7	hsa-miR-516a-5p	0.19	-0.61	no change	no change
8	hsa-miR-320a	0.64	1.57	no change	no change
9	hsa-miR-19b	0.16	2	no change	no change
10	hsa-miR-17	-0.34	0.16	no change	no change
11	hsa-miR-526b*	1.13	0.15	no change	no change
12	hsa-miR-26b	0.09	-0.92	no change	no change
13	hsa-miR-92b*	1.38	-0.12	no change	no change
14	hsa-miR-675	0.04	-0.1	no change	no change
15	hsa-miR-922	0.02	1.4	no change	no change
16	hsa-miR-27a*	-1.73	0.86	no change	no change
17	hsa-miR-106b*	-0.13	0.66	no change	no change
18	hsa-miR-1908	-0.64	-0.36	no change	no change
19	hsa-miR-29b	-0.5	-1.05	no change	no change
20	hsa-miR-30c-2*	-0.94	0.66	no change	no change
